The chains behind the UniProt entries cited, without tags or fusion partners. Where a name states a change or a piece, a line headed by the entry shows the natural chain unless it says otherwise.
UniProt Q7JQ32: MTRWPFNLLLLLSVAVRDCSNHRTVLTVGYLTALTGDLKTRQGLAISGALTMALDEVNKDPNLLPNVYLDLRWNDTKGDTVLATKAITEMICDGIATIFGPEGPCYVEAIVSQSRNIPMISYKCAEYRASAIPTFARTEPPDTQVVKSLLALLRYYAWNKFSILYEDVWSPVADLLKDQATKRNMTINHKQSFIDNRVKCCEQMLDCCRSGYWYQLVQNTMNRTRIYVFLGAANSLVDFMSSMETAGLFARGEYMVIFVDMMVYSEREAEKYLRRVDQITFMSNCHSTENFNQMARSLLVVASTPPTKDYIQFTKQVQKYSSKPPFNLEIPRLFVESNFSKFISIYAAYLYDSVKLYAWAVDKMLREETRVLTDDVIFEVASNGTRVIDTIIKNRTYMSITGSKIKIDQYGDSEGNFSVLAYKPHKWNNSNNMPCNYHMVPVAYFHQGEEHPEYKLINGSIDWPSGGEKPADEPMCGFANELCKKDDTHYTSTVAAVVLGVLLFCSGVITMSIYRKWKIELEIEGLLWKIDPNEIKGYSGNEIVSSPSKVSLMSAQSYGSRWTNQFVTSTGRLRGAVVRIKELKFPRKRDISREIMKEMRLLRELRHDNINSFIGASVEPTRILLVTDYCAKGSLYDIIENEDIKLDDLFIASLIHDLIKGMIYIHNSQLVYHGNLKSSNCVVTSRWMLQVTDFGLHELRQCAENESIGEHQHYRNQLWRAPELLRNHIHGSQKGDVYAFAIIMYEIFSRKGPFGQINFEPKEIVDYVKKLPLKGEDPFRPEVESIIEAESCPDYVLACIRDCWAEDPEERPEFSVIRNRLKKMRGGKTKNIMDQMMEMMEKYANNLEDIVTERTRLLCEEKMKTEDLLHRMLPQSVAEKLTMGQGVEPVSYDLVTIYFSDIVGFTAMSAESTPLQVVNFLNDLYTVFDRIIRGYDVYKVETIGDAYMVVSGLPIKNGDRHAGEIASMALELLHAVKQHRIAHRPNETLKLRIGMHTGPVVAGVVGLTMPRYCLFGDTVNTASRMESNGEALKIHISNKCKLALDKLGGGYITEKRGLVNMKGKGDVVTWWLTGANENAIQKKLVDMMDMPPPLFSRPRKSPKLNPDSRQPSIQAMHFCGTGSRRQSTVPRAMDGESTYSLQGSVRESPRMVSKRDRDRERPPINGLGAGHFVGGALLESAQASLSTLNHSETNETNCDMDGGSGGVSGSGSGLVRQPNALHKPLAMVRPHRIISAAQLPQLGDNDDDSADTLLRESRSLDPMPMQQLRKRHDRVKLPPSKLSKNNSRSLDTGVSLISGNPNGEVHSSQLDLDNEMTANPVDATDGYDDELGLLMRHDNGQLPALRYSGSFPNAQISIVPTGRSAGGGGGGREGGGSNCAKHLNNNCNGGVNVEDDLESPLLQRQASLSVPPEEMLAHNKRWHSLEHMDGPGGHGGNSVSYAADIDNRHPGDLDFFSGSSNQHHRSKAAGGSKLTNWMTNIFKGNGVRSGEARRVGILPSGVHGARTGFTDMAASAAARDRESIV
UniProt P08646: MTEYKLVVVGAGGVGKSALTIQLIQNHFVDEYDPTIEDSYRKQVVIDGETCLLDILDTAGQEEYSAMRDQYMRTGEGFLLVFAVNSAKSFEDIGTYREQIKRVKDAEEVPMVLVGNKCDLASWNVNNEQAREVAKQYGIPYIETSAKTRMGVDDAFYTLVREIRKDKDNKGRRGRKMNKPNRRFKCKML

In PMC6999089:

Target: FLAG-tagged Gyc76C mutant lacking the kinase homology domain (Drosophila) (UniProt Q7JQ32)
Assay: co-IP; S2 cells co-transfected with V5-Ras85D and FLAG-Gyc76C (WT or ΔKHD); lysis in 30 mM Tris pH 7.5, 150 mM NaCl, 1% CHAPS; IP with anti-FLAG M2 and Dynabeads M280 at 4°C; wash with 500 mM NaCl, 1% CHAPS; blot with anti-V5 and anti-FLAG

V5-tagged Ras85D (from UniProt P08646 1-189)
binding: binds

Results are given in words; binding and its absence hold for the method and conditions named. In cells and extracts the contact can be indirect. Binding can be weak; no strength is given.
